Earlier results as cited in US6017948A, “Water-miscible pharmaceutical compositions” (Supergen, Inc., priority 1998, dated 2000).

In the case of `CC(=O)O[C@H]1C(=O)[C@@]2(C)[C@H]([C@H](OC(=O)c3ccccc3)[C@]3(O)C[C@H](OC(=O)[C@H](O)[C@@H](NC(=O)c4ccccc4)c4ccccc4)C(C)=C1C3(C)C)[C@]1(OC(C)=O)CO[C@@H]1C[C@@H]2O` [paclitaxel], the solubility in water is listed as “less than 0.01 mg/mL”.
